Measurements: the supplement of paper PMC7752906
Where a name gives a salt, the structure may show the parent alone. Some of the results follow. Single values are uncertain here, since repeats match poorly.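 About 40 Schistosoma mansoni schistosomula per well were imaged over time in bright field and compared with 0.1% DMSO wells. A drug counts as a hit if its Mahalanobis distance reaches 2.47 or more, three standard deviations above the DMSO control mean. Degeneracy is the fraction of worms scored opaque.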

What follows are compounds tested on Schistosoma mansoni schistosomula (assay: degeneracy (percent of somules classified as degenerate/opaque); higher = more parasite degeneration/death; extreme values may be limits of the assay). Settings: 10 µM; 72 h.

Row | Structure (SMILES) | degeneracy
1 | COC(=O)C(c1ccccc1)C1CCCCN1 (stereo unspecified) [Methylphenidate Hydrochloride] | 2.86%
2 | CCC(C)(C)O [Amylene Hydrate] | 6.67%
3 | C[C@]12Cc3c[nH]nc3C[C@@H]1CC[C@@H]1[C@@H]2CC[C@@]2(C)[C@H]1CC[C@]2(C)O [Stanozolol] | 22.2%
4 | COc1ccc(CCN2CCC(Nc3nc4ccccc4n3Cc3ccc(F)cc3)CC2)cc1 [Astemizole] | 100%
5 | Oc1cc(Cl)ccc1Oc1ccc(Cl)cc1Cl [Triclosan] | 100%
6 | CCC1(CC)C(=O)C=CNC1=O [Pyrithyldione] | 15.8%
7 | COC(=O)C1=CCCN(C)C1 [Arecoline Hydrobromide] | 2.17%
8 | CC(C)(C)NCC(O)c1cc(Cl)c(N)c(Cl)c1 (stereo unspecified) [Clenbuterol] | 7.14%
9 | CNCC(=O)c1ccc(O)c(O)c1 [Adrenolone Hydrochloride] | 2.78%
10 | O=C(NC(=O)c1c(F)cccc1F)Nc1cc(Cl)c(OC(F)(F)C(F)C(F)(F)F)cc1Cl (stereo unspecified) [Lufenuron] | 26.9%
11 | CCn1cc(C(=O)O)c(=O)c2cc3c(cc21)OCO3 [Oxolinic Acid] | 5.88%
12 | C[N+]1(C)[C@@H]2C[C@@H](OC(=O)[C@H](CO)c3ccccc3)C[C@H]1[C@@H]1O[C@@H]12 [Methscopolamine Bromide] | 3.85%
13 | CCN(C)C(=O)Oc1cccc([C@H](C)N(C)C)c1 [Rivastigmine Tartrate] | 7.69%
14 | C[C@@H]1O[C@@H](O[C@H]2C[C@@H](O)[C@]3(CO)[C@H]4[C@H](O)C[C@]5(C)[C@@H](C6=CC(=O)OC6)CC[C@]5(O)[C@@H]4CC[C@]3(O)C2)[C@H](O)[C@H](O)[C@H]1O [Ouabain] | 71.4%
15 | N=C1NC(=O)N2CC12 (stereo unspecified) [Imexon] | 13.2%
16 | C[N+]1([O-])[C@@H]2CC[C@H]1C[C@@H](OC(=O)C(CO)c1ccccc1)C2 (stereo partly specified) [Atropine Oxide] | 6.82%
17 | COc1ccc(O)c(C(C)(C)C)c1.COc1ccc(O)cc1C(C)(C)C [Butylated Hydroxyanisole] | 100%
18 | Nc1ccncc1 [4-aminopyridine] | 9.68%
19 | COc1ccc(C(=O)N2CCCC2=O)cc1 [Aniracetam] | 3.57%
20 | O=C(O)CCCc1ccc(N(CCCl)CCCl)cc1 [Chlorambucil] | 8.57%
21 | CC[C@@H](C(N)=O)N1CCCC1=O [Levetiracetam] | 7.69%
22 | O=C1C=C2C=C[C@@H]3C[C@@]2(O1)[C@H]1CCCCN31 [securinine] | 100%
23 | CCN[C@@H](C)Cc1cccc(C(F)(F)F)c1 [Dexfenfluramine] | 0%

Quoted from above, nos. 10 to 13
Row | Structure (SMILES) | degeneracy
10 | O=C(NC(=O)c1c(F)cccc1F)Nc1cc(Cl)c(OC(F)(F)C(F)C(F)(F)F)cc1Cl (stereo unspecified) [Lufenuron] | 26.9%
11 | CCn1cc(C(=O)O)c(=O)c2cc3c(cc21)OCO3 [Oxolinic Acid] | 5.88%
12 | C[N+]1(C)[C@@H]2C[C@@H](OC(=O)[C@H](CO)c3ccccc3)C[C@H]1[C@@H]1O[C@@H]12 [Methscopolamine Bromide] | 3.85%
13 | CCN(C)C(=O)Oc1cccc([C@H](C)N(C)C)c1 [Rivastigmine Tartrate] | 7.69%

Carrying on:

Row | Structure (SMILES) | degeneracy
24 | NC(=O)C[S@@+]([O-])C(c1ccccc1)c1ccccc1 [Armodafinil] | 2.78%
25 | CC(C)=CC1C(C(=O)OCc2cccc(Oc3ccccc3)c2)C1(C)C (stereo unspecified) [Phenothrin] | 14.9%
26 | COc1cccc(C2(O)CCCCC2CN(C)C)c1 (stereo unspecified) [Tramadol] | 18.9%
27 | COc1cccc(C2(O)CCCCC2CN(C)C)c1 (stereo unspecified) [Tramadol Hydrochloride] | 3.7%
28 | CC(CCc1ccccc1)NC(C)C(O)c1ccc(O)cc1 (stereo unspecified) [Nylidrin] | 9.68%
29 | CN1C[C@H](C(=O)N[C@]2(C)O[C@@]3(O)[C@@H]4CCCN4C(=O)[C@H](Cc4ccccc4)N3C2=O)C[C@@H]2c3cccc4[nH]cc(c34)C[C@H]21 [Dihydroergotamine] | 100%
30 | CCCN1C[C@H](CSC)C[C@@H]2c3cccc4[nH]cc(c34)C[C@H]21 [Pergolide] | 15%
31 | CNc1ccc(C(=O)CC(O)CCC(C)C2OC(=O)CC(O)CC(=O)CC(O)CC(O)CC(O)CC(O)CC3(O)CC(O)C(C(=O)OC)C(CC(O[C@@H]4O[C@H](C)[C@@H](O)[C@H](N)[C@@H]4O)/C=C/C=C/C=C/C=C/C=C/C=C/C=C/C2C)O3)cc1.COC(=O)C1C(O)CC2(O)CC(O)CC(O)CC(O)CC(O)CC(=O)CC(O)CC(=O)OC(C(C)CCC(O)CC(=O)c3ccc(N)cc3)C(C)/C=C/C=C/C=C/C=C/C=C/C=C/C=C/C(O[C@@H]3O[C@H](C)[C@@H](O)[C@H](N)[C@@H]3O)CC1O2 (stereo partly specified) [mepartricin] | 5.88%
32 | Cc1ncc(CNC(=O)N(CCCl)N=O)c(N)n1 [Nimustine] | 9.38%
33 | C=C(C)[C@H]1CN[C@H](C(=O)O)[C@H]1CC(=O)O [Kainic Acid] | 0%
34 | CC[C@H]1CN2CC[C@H]1C[C@@H]2[C@@H](O)c1ccnc2ccc(OC)cc12 [Hydroquinidine] | 28.6%
35 | COc1ccc(CN2CCNCC2)c(OC)c1OC [Trimetazidine] | 0%
36 | CC(C)N(CCC(C(N)=O)(c1ccccc1)c1ccccn1)C(C)C (stereo unspecified) [Disopyramide] | 0%
37 | Nc1nc(N)nc(NC2CC2)n1 [Cyromazine] | 5.56%
38 | O=C1CN=C(c2ccccc2Cl)c2cc([N+](=O)[O-])ccc2N1 [Clonazepam] | 0%
39 | COc1ccc2c(c1)[C@]13CCCC[C@@H]1[C@H](C2)N(C)CC3 [Dextromethorphan Hydrobromide] | 32.4%
40 | CC(Cc1ccc(O)cc1)NCC(O)c1cc(O)cc(O)c1 (stereo unspecified) [Fenoterol Hydrobromide] | 6.67%
41 | C=CCN=C=S [Allylisothiocyanate] | 100%
42 | C=CC[C@]1(O)CC[C@H]2[C@@H]3CCC4=CC(=O)CCC4=C3C=C[C@@]21C [Altrenogest] | 21.1%
43 | CC(C)CC(N(C)C)C1(c2ccc(Cl)cc2)CCC1 (stereo unspecified) [Sibutramine] | 28.6%
44 | CNC1(c2ccccc2Cl)CCCCC1=O (stereo unspecified) [Ketamine] | 11.1%
45 | CCN(CC)C(=O)N[C@H]1C=C2c3cccc4[nH]cc(c34)C[C@H]2N(C)C1 [Lisuride] | 72.7%
46 | O=C([O-])Cc1ccccc1.[Na+] [Sodium Phenylacetate] | 3.03%
